The record followed here is PMC8206134, “Structural basis of mechano-chemical coupling by the mitotic kinesin KIF14” (Nature Communications, 2021).

These are yes or no findings as the source states them, for the method shown.

This assay addresses KIF14 construct K735 (residues Asn-391 to Leu-735) (mouse) (UniProt L0N7N1). Description: SEC; size-exclusion chromatography of the KIF14 constructs alone in solution, elution compared with protein standards (66, 44 and 25 kDa); both purified.

B1: KIF14 construct K735 (residues Asn-391 to Leu-735) (domain or fragment, UniProt L0N7N1 391-735)
chain: NSQVTVAVRVRPFSKREKTEKASQVVFTNGEEITVEHPDMKQVYSFIYDVSFWSFDECHPGYASQTTVYETLAAPLLDRAFEGYNTCLFAYGQTGSGKSYTMMGLNEEPGIIPRFCEDLFAQIAKKQTSEVSYHLEMSFFEVYNEKIHDLLVCKGENGQRKQPLRAREHPVSGPYVEGLSMNVVSSYSDIQSWLELGNKQRATAATGMNDKSSRSHSVFTLVMTQTKTEVVEGEEHDHRITSRINLVDLAGSERCSTAHSSGQRLKEGVSINKSLLTLGKVISALSEQANGKRVFIPYRESTLTWLLKESLGGNSKTAMIATVSPAASNIEETLSTLRYATQARL
Regarding B1, the binding entry was “no binding”.
